First the molecules themselves.
T1: Growth and differentiation factor 15 (GDF15) (UniProt Q99988 197-308, limits assumed)
T1 construct: Purchased GDF15 added to cells, pull-downs, peptide arrays and ELISA; also called MIC1
T1 sequence (looked up): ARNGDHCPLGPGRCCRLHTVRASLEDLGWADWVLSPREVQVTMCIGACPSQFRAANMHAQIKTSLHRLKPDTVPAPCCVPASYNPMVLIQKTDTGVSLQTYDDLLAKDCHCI

No constants are given. Whether binding was seen depends on the method and setting. For some of these results: In cells and extracts the contact can be indirect. Some results given as binding are weak or reduced against the parent protein; the word gives no strength.

The first test concerns the target T1, Growth and differentiation factor 15 …. As to the kind of experiment: condition: cut-off of approximately greater than or equal to 0.1 OD; GDF15 at 100 ng/ml; ELISA, biotinylated peptide in streptavidin wells.
With FTDFNATSALFWEQHDLVYGG (biotinylated (position not given); C-terminal glycine not present in CLPTM1) [CLPTM1 peptide … (SEQ ID NO: 273)], the binding result is “no binding”.
With RIFIIWAISSWFRRGPAPQDG (biotinylated (position not given); C-terminal glycine not present in CLPTM1) [CLPTM1 peptide … (SEQ ID NO: 253)], the binding result is given as “no binding”.
Turning to LWRWQLYAAQSTKSPWNFLGG (biotinylated (position not given); C-terminal glycine not present in CLPTM1) [CLPTM1 peptide … (SEQ ID NO: 268)], the binding entry is reported as “no binding”.
In the case of WQVIKGVLFRIFIIWAISSWG (biotinylated (position not given); C-terminal glycine not present in CLPTM1) [CLPTM1 peptide … (SEQ ID NO: 271)], the binding result is given as “no binding”.
Same read-out and setting: to SALFWEQHDLVYGDWTSGENG (biotinylated (position not given); C-terminal glycine not present in CLPTM1) [CLPTM1 peptide … (SEQ ID NO: 256)] belongs “no binding”; to SGQVTSNGSIGRDPPAETQPG (biotinylated (position not given); C-terminal glycine not present in CLPTM1) [CLPTM1 peptide … (SEQ ID NO: 251)], “no binding”.
On the same count and under the same terms, to YEQSDEEQDSVKVALLETNPG (biotinylated (position not given); C-terminal glycine not present in CLPTM1) [CLPTM1 peptide … (SEQ ID NO: 267)] belongs “no binding”; to STKSPWNFLGDELYEQSDEEG (biotinylated (position not given); C-terminal glycine not present in CLPTM1) [CLPTM1 peptide … (SEQ ID NO: 266)], “no binding”.
On to SDGCYEHFAELDIPQSVQQNG (biotinylated (position not given); C-terminal glycine not present in CLPTM1) [CLPTM1 peptide … (SEQ ID NO: 257)], for which the binding entry is “no binding”.
On the same count and under the same terms, as for QNPPAQPAPNAWQVIKGVLFG (biotinylated (position not given); C-terminal glycine not present in CLPTM1) [CLPTM1 peptide … (SEQ ID NO: 252)], the entry is “no binding”; as for RRRFQKTKNLLTGETEADPEG (biotinylated (position not given); C-terminal glycine not present in CLPTM1) [CLPTM1 peptide … (SEQ ID NO: 260)], “no binding”.
Consider NDYWNLQKDYYPINESLASLG (biotinylated (position not given); C-terminal glycine not present in CLPTM1) [CLPTM1 peptide … (SEQ ID NO: 264)], for which the binding entry is “no binding”.
Same read-out and setting: to RNLFPKDTLMNLHVYISEHEG (biotinylated (position not given); C-terminal glycine not present in CLPTM1) [CLPTM1 peptide … (SEQ ID NO: 272)] belongs “no binding”.
Turning to QAGPGGAPRVASRNLFPKDTG (biotinylated (position not given); C-terminal glycine not present in CLPTM1) [CLPTM1 peptide … (SEQ ID NO: 254)], the binding entry is “no binding”.
Consider PLRVSFCPLSLWRWQLYAAQG (biotinylated (position not given); C-terminal glycine not present in CLPTM1) [CLPTM1 peptide … (SEQ ID NO: 265)], for which the binding result is on record as “no binding”.
Regarding AAAQEADGARSAVVAAGGGSG (biotinylated (position not given); C-terminal glycine not present in CLPTM1) [CLPTM1 peptide … (SEQ ID NO: 250)], the binding entry is on record as “no binding”.
For LMNLHVYISEHEHFTDFNATG (biotinylated (position not given); C-terminal glycine not present in CLPTM1) [CLPTM1 peptide … (SEQ ID NO: 255)], the binding result is recorded as “no binding”.

The target is the same in the next test. Put plainly: biotin-peptide pull-down, Western blot.
For GALFWEQHDLVYGDWTS (N-terminal biotin) [Biotin-… (peptide from extracellular domain of CLPTM1)], the binding entry is reported as “binds”.
Turning to GEIKYDFLYEKEHICCLEEWTS (N-terminal biotin) [Biotin-… (Extracellular domain 3 from QRFPR)], the binding entry is on record as “binds”.

Values taken from patent US20180282403A1, “AGENTS FOR REDUCING THE ACTIVITY OF GDF15” (GENAGON THERAPEUTICS AB, priority 2015, published 2018).
